Results: the supplement of paper PMC3334620
Whole data set: some 33,000 sequences, median “E-score (-0.5 to 0.5)” near -0.015, cut for the highest 2% near 0.3. The list shows a part of the results.

molecular target: T1, Abf1 (UniProt P14164); experiment: PBM E-score (8-mer binding enrichment) (E-score (-0.5 to 0.5)); higher = stronger / more preferred TF binding; settings: protein concentration: 200 nM; construct: GST-full length
T1 sequence: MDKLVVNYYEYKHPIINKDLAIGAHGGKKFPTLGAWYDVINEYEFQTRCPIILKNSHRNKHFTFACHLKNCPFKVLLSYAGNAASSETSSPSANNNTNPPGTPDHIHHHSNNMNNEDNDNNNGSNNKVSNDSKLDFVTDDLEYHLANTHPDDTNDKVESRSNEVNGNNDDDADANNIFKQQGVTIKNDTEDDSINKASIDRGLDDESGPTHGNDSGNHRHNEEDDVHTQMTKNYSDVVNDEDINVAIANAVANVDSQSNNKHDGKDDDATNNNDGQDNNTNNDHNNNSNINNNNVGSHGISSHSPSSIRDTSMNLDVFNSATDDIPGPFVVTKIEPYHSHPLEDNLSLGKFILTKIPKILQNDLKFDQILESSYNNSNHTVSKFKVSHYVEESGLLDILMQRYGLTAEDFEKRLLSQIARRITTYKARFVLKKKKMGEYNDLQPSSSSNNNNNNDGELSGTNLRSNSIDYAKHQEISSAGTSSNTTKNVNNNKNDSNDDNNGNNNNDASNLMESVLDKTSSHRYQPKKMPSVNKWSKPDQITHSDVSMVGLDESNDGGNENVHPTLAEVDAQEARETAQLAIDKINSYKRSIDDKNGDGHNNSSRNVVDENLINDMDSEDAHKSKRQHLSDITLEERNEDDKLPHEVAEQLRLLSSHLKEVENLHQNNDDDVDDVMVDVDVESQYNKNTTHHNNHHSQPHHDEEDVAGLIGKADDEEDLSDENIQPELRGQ
How it was run: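 E-scores (a modified Wilcoxon-Mann-Whitney statistic) were assigned by the Universal PBM Analysis Suite to every ungapped eight-base word pooled with its reverse complement. The input came from universal all-10-mer Agilent arrays made double-stranded by primer extension and probed with GST-tagged yeast transcription factors at about 100-200 nM. Fluorescent anti-GST detected bound protein, and masliner normalised the scans.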

Sequence	PBM E-score
ACGCACCA	-0.101
CATTCTAA	0.113
AATCACTC	0.224
ATCAGAGA	0.121
CATATACC	-0.0104
GTTTCGCA	0.0355
GGGGCAGA	-0.105
ACCCGCGT	-0.203
TACTATCA	0.246
GTCAGCAC	0.136
CTTGATAA	0.138
GCCACGAA	0.0988
ATACTTTC	0.126
ACTCTGTC	0.0112
AAAACAGA	0.126
CGCTCGCA	0.128
CGTGGGAG	0.0501
CCGAACCC	-0.233
CTTCCTAA	-0.135
CCGCACTA	0.0091
ATATGTCC	0.0624
ACCCCCAT	-0.291
CCCGAGTA	-0.105
CCCCAAAC	-0.275
ACTCGAAG	-0.175

Sequence	PBM E-score
CCCTCTCA	-0.268
TAATCCAA	0.0772
GCCGCTTA	-0.0315
CCGAAGAG	-0.209
GGGCGTGA	0.214
ACCGAGAG	-0.167
AACGGACC	-0.168
ACAAGTTC	-0.0616
AGCTGTCG	0.1
CCAATGAG	-0.0959
TATACAAA	0.14
GTCGACAA	-0.112
AGGCAAAA	0.0649
ATCACAGA	0.0333
AATTACGC	-0.0379
CTGACGGC	0.109
GGAACTAA	-0.0359
AGCCAGAT	-0.124
GCCCTAGC	-0.249
CATATTTA	0.135
AAGATAAT	0.0926
CCGCGGTC	-0.149
GCGGTCAA	-0.12
GAAGTGCA	-0.0967
AGTGGGGC	-0.275

Sequence	PBM E-score
TTTGCAAA	0.0778
GTCTAGCA	-0.0788
TCACGTCA	0.331
ACTCCAAG	-0.00256
ACGGTAAA	0.092
TAAAGTGA	0.282
GAGTTGCC	0.0297
ACAATGCG	0.0477
ACAGTGTA	-0.0386
ACCCTTGA	0.0206
CCCTCGAG	-0.305
AGTTGCGA	-0.027
ACCTGCAG	-0.00304
AACTGTCA	0.13
CATCTCGC	0.0691
AGCTAGTC	-0.0461
AAAAACGC	-0.014
AGATGACG	0.246
AGAGCGAC	0.0708
CCTATGAG	0.0388
AAGACGTC	0.0368
AATCTAGA	-0.114
CGGACCGC	-0.199
GGTGCTCA	-0.151
ATCTAACG	0.101

Sequence	PBM E-score
AGAAGCAC	-0.157
ACGTTAAG	0.005
ACTGATAG	-0.0879
TGCCACCA	-0.266
AGTAGGAC	-0.0248
CGTTCTCC	-0.0255
AGATCAGA	-0.0113
CGGATACC	-0.0139
ACCTAAGC	-0.0585
AGCAGTCG	-0.0394
AAAGGTAT	0.108
ACCGAAAT	0.122
AGCCACCC	-0.169
GAACCAAA	-0.0341
AGCATAAA	0.0402
ACGTCCAC	0.136
CAGCTGCA	-0.179
CAAGTCTC	-0.15
TTACGTAA	0.196
AGCCCTTC	-0.0822
CAACTAAG	-0.0616
GCTGCGCC	-0.157
CGCGCCGA	-0.0473
CCCGGCCA	-0.267
GATAAGAA	0.27

Shown as a markdown table: part of the list above.

| Sequence | PBM E-score |
| --- | --- |
| CTGACGGC | 0.109 |
| GGAACTAA | -0.0359 |
| AGCCAGAT | -0.124 |
| GCCCTAGC | -0.249 |
| CATATTTA | 0.135 |
| AAGATAAT | 0.0926 |
| CCGCGGTC | -0.149 |
| GCGGTCAA | -0.12 |
| GAAGTGCA | -0.0967 |
| AGTGGGGC | -0.275 |
| TTTGCAAA | 0.0778 |
| GTCTAGCA | -0.0788 |
| TCACGTCA | 0.331 |
| ACTCCAAG | -0.00256 |
| ACGGTAAA | 0.092 |
| TAAAGTGA | 0.282 |
| GAGTTGCC | 0.0297 |
| ACAATGCG | 0.0477 |
| ACAGTGTA | -0.0386 |
| ACCCTTGA | 0.0206 |
| CCCTCGAG | -0.305 |
| AGTTGCGA | -0.027 |
| ACCTGCAG | -0.00304 |
| AACTGTCA | 0.13 |
| CATCTCGC | 0.0691 |
| AGCTAGTC | -0.0461 |
| AAAAACGC | -0.014 |
| AGATGACG | 0.246 |
| AGAGCGAC | 0.0708 |
| CCTATGAG | 0.0388 |
| AAGACGTC | 0.0368 |
| AATCTAGA | -0.114 |
| CGGACCGC | -0.199 |
| GGTGCTCA | -0.151 |
| ATCTAACG | 0.101 |
| AGAAGCAC | -0.157 |
| ACGTTAAG | 0.005 |
| ACTGATAG | -0.0879 |
| TGCCACCA | -0.266 |
| AGTAGGAC | -0.0248 |
| CGTTCTCC | -0.0255 |
| AGATCAGA | -0.0113 |
| CGGATACC | -0.0139 |
| ACCTAAGC | -0.0585 |
| AGCAGTCG | -0.0394 |
| AAAGGTAT | 0.108 |
| ACCGAAAT | 0.122 |
| AGCCACCC | -0.169 |
| GAACCAAA | -0.0341 |
| AGCATAAA | 0.0402 |
| ACGTCCAC | 0.136 |
| CAGCTGCA | -0.179 |

Next results:

Sequence	PBM E-score
TGAAGACA	0.0305
TCTGGGCA	-0.241
ACAAACAG	0.0387
AGCCGACT	-0.078
AGAACGAA	0.218
AGCCGTAC	0.238
CGAGCATC	-0.126
GACGGTCC	0.122
ACAAGTTG	-0.0996
GATGTTCA	0.148
CCTGCGTC	-0.22
CAACGGGC	0.085
AACAAACA	-0.0765
GCCAACGA	0.00118
AAATTTAG	0.136
CCGGAGCG	-0.0546
AAGCTATT	-0.0413
ACGACGAG	0.156
CTGTTATA	0.116
CAACTTAG	0.0187
AAACGGAG	-0.0448
GATTGTAA	0.0426
GCACACCC	-0.125
CCGAAGTC	-0.0748
CTACGCCA	-0.0775

Sequence	PBM E-score
TCAGGGCA	-0.0897
TGCATCCA	-0.0455
ACTACGCT	0.0196
AGCACGCA	0.126
AAACCCCT	-0.326
ATTAGAAC	0.126
ACATGAGA	0.0787
TCTGTTAA	-0.0344
ATGGGCGC	-0.159
ACGGGTTG	-0.169
GGTAAGCA	-0.12
CAATACGA	0.281
ACGGTCTG	0.0716
GTGCCCAA	0.14
GAGTATAC	0.0804
CTTTAAAA	0.0131
AATCTGAG	-0.0962
GACTAAGC	0.0472
CAGCTACA	0.00655
GCCTTGCC	-0.241
CAAGCTTA	-0.122
GACTGTCC	-0.119
GCCGGCCC	-0.271
GGGAAAAC	-0.145
CAATCAGG	-0.075

Sequence	PBM E-score
TATGACAA	0.27
CGGTTAGC	-0.285
ATTAAGTA	0.133
CGTTAATA	0.262
GGGACAAC	-0.0272
ACCATTCG	0.0224
CGTAAGTC	-0.0274
ATTGCAAA	-0.03
AATGGAGA	-0.126
AGGCAAAG	0.0129
ACTAGTCT	-0.206
ATTTGTTG	0.0443
ATTCACGA	0.235
GCCGCCGA	-0.00687
GACCCTGC	-0.0412
AGGGATAA	0.223
CGGTAGGA	-0.266
AGGGCGTA	0.0399
CGTGCCGA	0.171
ATCCTACG	0.2
TACAAGTA	-0.0738
GCACCGGC	-0.15
